Laboratory results published in the supplement of paper PMC10849652.
Some of the results follow.

By UniProt entry, the sequences of proteins in these tests, tags left out. Where a name states a change or a piece, a line headed by the entry shows the natural chain unless it says otherwise.
UniProt Q8TD22: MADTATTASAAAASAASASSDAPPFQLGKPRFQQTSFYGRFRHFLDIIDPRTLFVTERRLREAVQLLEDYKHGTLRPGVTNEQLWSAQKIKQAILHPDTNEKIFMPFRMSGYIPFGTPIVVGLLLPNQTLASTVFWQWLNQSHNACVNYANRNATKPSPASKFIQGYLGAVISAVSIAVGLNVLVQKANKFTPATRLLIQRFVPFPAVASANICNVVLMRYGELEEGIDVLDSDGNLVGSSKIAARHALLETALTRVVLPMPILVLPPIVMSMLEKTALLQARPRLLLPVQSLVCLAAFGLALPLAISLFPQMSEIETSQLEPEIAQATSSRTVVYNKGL
UniProt O43255: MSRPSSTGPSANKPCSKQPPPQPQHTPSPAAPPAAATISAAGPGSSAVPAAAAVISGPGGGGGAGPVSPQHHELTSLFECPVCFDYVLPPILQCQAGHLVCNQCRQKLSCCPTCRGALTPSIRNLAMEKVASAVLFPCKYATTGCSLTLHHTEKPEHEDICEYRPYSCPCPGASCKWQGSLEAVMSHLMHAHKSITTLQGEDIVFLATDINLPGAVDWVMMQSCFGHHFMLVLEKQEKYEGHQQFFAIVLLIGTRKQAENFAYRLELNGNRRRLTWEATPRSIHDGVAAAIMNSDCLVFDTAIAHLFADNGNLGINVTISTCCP
UniProt Q8N196: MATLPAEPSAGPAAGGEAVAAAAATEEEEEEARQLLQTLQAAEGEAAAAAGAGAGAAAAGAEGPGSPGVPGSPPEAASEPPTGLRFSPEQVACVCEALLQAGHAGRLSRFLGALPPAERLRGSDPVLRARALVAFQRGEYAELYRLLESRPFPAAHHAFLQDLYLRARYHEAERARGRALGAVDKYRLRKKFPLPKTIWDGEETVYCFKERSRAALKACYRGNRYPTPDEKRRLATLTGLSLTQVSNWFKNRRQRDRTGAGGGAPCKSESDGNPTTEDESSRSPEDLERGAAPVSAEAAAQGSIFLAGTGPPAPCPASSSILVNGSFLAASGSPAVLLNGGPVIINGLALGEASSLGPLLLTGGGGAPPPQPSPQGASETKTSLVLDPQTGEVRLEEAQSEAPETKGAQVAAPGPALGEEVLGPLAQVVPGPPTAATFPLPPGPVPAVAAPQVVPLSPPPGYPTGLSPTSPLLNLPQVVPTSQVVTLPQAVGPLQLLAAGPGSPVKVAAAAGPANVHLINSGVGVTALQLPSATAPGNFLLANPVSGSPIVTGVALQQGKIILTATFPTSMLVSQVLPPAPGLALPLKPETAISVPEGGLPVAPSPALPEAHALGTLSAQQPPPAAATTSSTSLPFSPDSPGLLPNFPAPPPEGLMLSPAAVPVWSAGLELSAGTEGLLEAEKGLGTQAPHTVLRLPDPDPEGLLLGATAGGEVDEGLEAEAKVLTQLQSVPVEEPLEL
UniProt Q13309, whole entry, looked up: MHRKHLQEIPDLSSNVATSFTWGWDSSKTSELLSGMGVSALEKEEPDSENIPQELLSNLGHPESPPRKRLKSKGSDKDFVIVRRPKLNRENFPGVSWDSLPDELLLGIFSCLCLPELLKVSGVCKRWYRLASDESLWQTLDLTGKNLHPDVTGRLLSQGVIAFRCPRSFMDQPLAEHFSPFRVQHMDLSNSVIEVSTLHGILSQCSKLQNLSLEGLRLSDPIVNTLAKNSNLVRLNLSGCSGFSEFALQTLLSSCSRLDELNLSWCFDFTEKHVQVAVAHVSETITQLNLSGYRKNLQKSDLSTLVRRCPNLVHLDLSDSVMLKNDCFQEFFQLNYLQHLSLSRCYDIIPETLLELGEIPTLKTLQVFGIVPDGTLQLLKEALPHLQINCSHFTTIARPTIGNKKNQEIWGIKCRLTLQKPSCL
UniProt Q2VWA4: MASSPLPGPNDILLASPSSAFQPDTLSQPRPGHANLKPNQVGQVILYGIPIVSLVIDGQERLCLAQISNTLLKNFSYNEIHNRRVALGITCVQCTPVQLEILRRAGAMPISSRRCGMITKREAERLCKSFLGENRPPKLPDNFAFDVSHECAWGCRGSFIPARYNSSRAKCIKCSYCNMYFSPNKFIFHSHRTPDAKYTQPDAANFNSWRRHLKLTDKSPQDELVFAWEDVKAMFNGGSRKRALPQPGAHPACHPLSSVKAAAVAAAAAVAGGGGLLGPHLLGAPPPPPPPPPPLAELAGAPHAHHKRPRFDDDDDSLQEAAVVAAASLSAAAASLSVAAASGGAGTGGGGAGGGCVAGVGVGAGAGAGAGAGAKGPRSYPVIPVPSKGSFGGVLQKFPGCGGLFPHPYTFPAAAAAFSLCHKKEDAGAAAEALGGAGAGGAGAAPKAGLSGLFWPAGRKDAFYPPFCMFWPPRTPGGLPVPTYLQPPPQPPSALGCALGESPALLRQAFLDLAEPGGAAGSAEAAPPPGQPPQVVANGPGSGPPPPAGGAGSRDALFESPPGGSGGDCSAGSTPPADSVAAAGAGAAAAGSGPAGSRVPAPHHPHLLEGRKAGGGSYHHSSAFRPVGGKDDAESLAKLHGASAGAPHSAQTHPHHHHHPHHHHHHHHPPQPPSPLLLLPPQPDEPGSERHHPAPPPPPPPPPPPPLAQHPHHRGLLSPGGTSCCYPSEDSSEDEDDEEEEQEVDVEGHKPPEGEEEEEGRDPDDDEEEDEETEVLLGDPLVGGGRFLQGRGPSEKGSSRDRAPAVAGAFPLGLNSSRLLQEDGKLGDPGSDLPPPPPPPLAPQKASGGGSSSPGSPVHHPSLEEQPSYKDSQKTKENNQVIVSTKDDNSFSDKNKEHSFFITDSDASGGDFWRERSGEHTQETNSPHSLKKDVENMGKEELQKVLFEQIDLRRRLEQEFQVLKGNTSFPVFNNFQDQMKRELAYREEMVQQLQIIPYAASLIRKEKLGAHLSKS
UniProt Q9NTG7: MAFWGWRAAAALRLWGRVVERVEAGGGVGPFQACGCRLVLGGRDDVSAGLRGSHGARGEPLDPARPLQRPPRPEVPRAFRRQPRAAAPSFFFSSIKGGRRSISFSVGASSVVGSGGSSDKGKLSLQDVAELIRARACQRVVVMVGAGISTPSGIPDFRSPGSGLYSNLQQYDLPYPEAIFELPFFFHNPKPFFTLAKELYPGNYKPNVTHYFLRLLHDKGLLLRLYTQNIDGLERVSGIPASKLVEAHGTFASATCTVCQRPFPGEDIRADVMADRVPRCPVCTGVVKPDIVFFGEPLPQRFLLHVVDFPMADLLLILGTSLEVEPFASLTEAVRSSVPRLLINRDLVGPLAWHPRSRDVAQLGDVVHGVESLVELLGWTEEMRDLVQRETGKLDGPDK
UniProt P78314: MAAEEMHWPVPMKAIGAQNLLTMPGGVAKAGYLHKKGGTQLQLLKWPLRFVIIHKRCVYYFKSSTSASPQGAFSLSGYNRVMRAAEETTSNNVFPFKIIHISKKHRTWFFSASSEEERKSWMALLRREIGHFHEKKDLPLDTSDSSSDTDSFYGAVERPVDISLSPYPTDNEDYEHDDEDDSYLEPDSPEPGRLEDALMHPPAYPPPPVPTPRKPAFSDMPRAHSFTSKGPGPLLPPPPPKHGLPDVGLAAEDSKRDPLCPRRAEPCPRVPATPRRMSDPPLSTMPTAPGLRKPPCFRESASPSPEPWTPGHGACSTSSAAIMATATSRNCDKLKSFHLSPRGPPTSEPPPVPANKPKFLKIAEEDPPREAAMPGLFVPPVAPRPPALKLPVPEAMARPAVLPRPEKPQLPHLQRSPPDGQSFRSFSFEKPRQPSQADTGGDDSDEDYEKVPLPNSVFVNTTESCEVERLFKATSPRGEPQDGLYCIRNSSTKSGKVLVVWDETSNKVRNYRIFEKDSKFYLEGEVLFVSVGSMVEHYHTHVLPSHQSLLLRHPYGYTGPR
UniProt Q7Z333: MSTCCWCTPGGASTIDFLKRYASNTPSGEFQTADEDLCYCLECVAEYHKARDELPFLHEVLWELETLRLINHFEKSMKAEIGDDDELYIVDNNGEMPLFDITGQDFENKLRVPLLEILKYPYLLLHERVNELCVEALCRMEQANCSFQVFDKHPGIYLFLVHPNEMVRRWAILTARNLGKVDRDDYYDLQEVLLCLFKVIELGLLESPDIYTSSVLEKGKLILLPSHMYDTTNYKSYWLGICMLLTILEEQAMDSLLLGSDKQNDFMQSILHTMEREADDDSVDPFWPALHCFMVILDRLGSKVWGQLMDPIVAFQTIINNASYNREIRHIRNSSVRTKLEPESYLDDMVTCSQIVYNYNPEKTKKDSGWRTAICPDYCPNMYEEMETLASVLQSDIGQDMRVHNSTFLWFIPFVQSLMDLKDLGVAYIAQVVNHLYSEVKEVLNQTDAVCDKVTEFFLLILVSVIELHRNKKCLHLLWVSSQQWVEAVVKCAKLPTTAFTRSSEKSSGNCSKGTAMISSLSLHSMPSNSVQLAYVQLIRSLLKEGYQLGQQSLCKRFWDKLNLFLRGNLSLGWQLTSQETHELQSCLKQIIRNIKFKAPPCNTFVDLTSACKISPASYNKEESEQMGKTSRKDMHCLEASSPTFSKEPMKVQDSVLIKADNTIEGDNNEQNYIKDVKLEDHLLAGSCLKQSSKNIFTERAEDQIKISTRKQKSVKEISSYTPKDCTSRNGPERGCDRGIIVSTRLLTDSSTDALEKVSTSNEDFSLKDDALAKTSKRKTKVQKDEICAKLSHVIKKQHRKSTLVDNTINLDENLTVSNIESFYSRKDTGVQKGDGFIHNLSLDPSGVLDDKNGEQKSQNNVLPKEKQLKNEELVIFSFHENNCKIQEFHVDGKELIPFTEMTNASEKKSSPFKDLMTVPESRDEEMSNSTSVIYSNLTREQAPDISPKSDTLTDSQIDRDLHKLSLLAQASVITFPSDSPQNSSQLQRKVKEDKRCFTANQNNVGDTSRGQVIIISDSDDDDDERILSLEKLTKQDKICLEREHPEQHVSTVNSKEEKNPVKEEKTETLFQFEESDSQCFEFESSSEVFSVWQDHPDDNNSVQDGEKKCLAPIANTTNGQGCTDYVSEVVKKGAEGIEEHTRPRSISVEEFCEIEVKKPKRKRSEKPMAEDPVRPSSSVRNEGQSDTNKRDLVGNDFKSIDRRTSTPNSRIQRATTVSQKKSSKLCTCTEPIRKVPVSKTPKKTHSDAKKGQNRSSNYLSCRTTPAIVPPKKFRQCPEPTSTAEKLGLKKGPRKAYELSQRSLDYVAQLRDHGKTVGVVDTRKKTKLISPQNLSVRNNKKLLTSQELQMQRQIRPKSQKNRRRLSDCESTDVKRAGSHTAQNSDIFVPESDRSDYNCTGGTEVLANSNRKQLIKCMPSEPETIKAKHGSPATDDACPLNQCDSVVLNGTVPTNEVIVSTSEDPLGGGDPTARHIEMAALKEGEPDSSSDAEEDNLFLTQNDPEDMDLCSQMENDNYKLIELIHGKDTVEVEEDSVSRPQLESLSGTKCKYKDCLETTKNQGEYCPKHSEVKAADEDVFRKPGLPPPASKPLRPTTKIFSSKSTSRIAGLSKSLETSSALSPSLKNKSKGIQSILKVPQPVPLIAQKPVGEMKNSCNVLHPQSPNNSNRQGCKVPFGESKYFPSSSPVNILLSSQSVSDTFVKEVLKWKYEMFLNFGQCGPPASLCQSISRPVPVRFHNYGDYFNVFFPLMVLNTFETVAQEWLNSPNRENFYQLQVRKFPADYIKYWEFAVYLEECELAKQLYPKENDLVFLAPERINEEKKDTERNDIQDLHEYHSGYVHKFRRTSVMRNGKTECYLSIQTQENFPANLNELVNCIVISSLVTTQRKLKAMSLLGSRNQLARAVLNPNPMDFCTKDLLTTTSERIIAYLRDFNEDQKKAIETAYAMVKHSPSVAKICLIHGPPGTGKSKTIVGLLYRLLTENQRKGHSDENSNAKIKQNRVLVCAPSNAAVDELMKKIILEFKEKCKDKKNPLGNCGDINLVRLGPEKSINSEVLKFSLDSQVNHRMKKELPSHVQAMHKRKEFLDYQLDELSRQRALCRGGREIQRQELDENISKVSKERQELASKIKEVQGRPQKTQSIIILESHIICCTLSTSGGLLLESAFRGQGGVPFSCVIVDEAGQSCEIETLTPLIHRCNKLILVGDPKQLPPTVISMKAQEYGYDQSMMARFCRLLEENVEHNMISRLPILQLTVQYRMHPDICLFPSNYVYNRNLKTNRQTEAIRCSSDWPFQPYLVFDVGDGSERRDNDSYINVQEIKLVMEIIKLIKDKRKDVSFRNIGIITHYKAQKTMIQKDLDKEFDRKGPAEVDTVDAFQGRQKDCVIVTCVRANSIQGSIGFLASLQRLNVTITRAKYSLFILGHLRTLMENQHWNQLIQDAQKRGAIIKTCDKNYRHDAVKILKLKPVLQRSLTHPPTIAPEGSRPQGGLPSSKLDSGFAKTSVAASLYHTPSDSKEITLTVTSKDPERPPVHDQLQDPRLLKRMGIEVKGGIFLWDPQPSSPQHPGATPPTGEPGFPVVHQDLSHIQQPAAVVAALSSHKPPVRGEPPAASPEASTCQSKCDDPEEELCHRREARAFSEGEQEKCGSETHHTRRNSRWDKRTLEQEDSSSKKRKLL

Experiments:
Assay in all cases: log2 fold change, soluble protein after heating vs DMSO (PISA); higher = thermal stabilisation; K562 lysate, 10 uM; active = over 0.2 and 3.5 SD of the protein, either way, in both replicates (recomputed)
erlotinib = compound: C#Cc1cccc(Nc2ncnc3cc(OCCOC)c(OCCOC)cc23)c1 [erlotinib]
In short: (§1)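 The values are log-two fold changes in thermal stability compared with solvent controls and come from duplicates. They were obtained by TMTpro 16plex LC-MS/MS, with channel sums equalised, on the supernatant after 21,000xg for 90 min. That supernatant came from crude K562 extract at 1 mg/mL protein treated with 10 μM compound for 30 min, heated for 3 min across 48°C-58°C, pooled and brought to 0.5% NP-40 at 4°C.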

[1] = compound: C/C(=N\NC(=O)C1=CC(=CC=C1)S(=O)(=O)N2CCOCC2)/C3=C(C=CC(=C3)Cl)O
In short: as §1

[2] = compound: C1=CC(=CC=C1C2=NC3=C(N2)C=C(C=C3)C(=O)N)OC4=CC=C(C=C4)Cl
In short: as §1

[3] = compound: C1=CC2=C(C=CC(=C2)/C=C\3/C(=O)NC(=NCC4=CC=CS4)S3)N=C1
In short: as §1

[4] = compound: C1=CC=C(C=C1)C2=NC(=C(N2)C3=CC=NC=C3)C4=CC(=C(C=C4)Cl)O
In short: as §1

[5] = compound: C1=CC=C2C(=C1)C3=NNC4=CC=CC(=C43)C2=O
In short: as §1

[6] = compound: C1CCN(C1)C(=O)NC2=CC=CC(=C2)NC3=NC=C(C(=N3)NCCC4=CN=CN4)Br
In short: as §1

[7] = compound: C1CN(CCC1(CC2=CC=C(C=C2)Cl)N)C3=NC=NC4=C3C=CN4
In short: as §1

IRAK-1-4 Inhibitor I = compound: C1COCCN1CCN2C3=CC=CC=C3N=C2NC(=O)C4=CC(=CC=C4)[N+](=O)[O-] [IRAK-1-4 Inhibitor I]
In short: as §1

ralimetinib = compound: CC(C)(C)Cn1c(N)nc2ccc(-c3[nH]c(C(C)(C)C)nc3-c3ccc(F)cc3)nc21 [ralimetinib]
In short: as §1

[8] = compound: CC(C)(O)CC(=O)NCCn1ccc2ncnc(Nc3ccc(Oc4cccc(C(F)(F)F)c4)c(Cl)c3)c21
In short: as §1

[9] = compound: CC(C)C1=C2N=C(C=C(N2N=C1)NCC3=CC=CC=C3)NCCCCCCN
In short: as §1

[10] = compound: CC1=C(C=C(C=C1)NC(=O)C2=CC(=CC=C2)N(C)C)NC(=O)C3=CC=C(C=C3)O
In short: as §1

[11] = compound: CC(=O)c1cnc2ccc(-c3cc(Cl)c(O)c(Cl)c3)nc2c1N[C@H]1CC[C@H](CN(C)C)CC1
In short: as §1

[12] = compound: CC1=C(C(CC(=O)N1)C2=CC=C(C=C2)C(F)(F)F)C(=O)NC3=C(C=C4C(=C3)C=NN4)F
In short: as §1

[13] = compound: CC1=C(C2=C(C=C1)C(=O)C3=CC=CC=C3N2CCCN)C
In short: as §1

[14] = compound: CC1=C(C=C(C=C1)NC(=O)C2=CC(=CC=C2)C(C)(C)C#N)NC3=CC4=C(C=C3)N=CN(C4=O)C
In short: as §1

[15] = compound: CC1=CC=C(C=C1)SC2=C3C=C(SC3=CN=C2)C(=O)N
In short: as §1

[16] = compound: C1=CC2=NC=CN=C2C=C1/C=C/3\C(=O)NC(=O)S3
In short: as §1

ibrutinib = compound: C=CC(=O)N1CCC[C@@H](n2nc(-c3ccc(Oc4ccccc4)cc3)c3c(N)ncnc32)C1 [ibrutinib]
In short: as §1

Target	log2 fold change (erlotinib)	log2 fold change [1]	log2 fold change [2]	log2 fold change [3]	log2 fold change [4]	log2 fold change [5]	log2 fold change [6]	log2 fold change [7]	log2 fold change (IRAK-1-4 Inhibitor I)	log2 fold change (ralimetinib)	log2 fold change [8]	log2 fold change [9]	log2 fold change [10]	log2 fold change [11]	log2 fold change [12]	log2 fold change [13]	log2 fold change [14]	log2 fold change [15]	log2 fold change [16]	log2 fold change (ibrutinib)
SKIL (UniProt P12757)	inactive: 0.194	inactive: 0.063	inactive: 0.132	inactive: -0.035	inactive: 0.092	inactive: -0.084	inactive: -0.06	inactive: 0.129	inactive: 0.022	inactive: -0.096	inactive: -0.152	inactive: 0.046	inactive: 0.042							
SFXN5 (UniProt Q8TD22)	inactive: -0.057	inactive: -0.052	inactive: -0.171	inactive: 0.013	inactive: -0.002	inactive: -0.029	inactive: 0.064	inactive: -0.08	inactive: -0.034	inactive: -0.027	inactive: -0.046	inactive: -0.146	inactive: -0.037	inactive: -0.009	inactive: 0.049	inactive: -0.066	inactive: -0.033	inactive: -0.083		
SIAH2 (UniProt O43255)	inactive: 0.009	inactive: -0.082	inactive: 0.004	inactive: 0.048		inactive: 0.172						inactive: 0.007		inactive: 0.039	inactive: 0.07			inactive: 0.031	inactive: 0.049	inactive: 0.02
SIX5 (UniProt Q8N196)	inactive: -0.062		inactive: -0.05		inactive: -0.034				inactive: -0.141	inactive: -0.023	inactive: -0.046	inactive: -0.042	inactive: 0.13	inactive: 0.009	inactive: -0.061	inactive: 0.011	inactive: 0.017	inactive: 0.021	inactive: -0.046	inactive: -0.021
SKP2 (UniProt Q13309)	inactive: 0.06	inactive: -0.053	inactive: -0.063	inactive: 0.027	inactive: -0.023	inactive: -0.029	inactive: -0.027	inactive: 0.044	inactive: -0.002	inactive: 0.137	inactive: 0.045	inactive: 0.058	inactive: -0.015	inactive: -0.137	inactive: -0.041	inactive: 0.023	inactive: -0.097	active: -0.576		
SKOR2 (UniProt Q2VWA4)	inactive: 0.083	inactive: -0.078	inactive: 0.02	inactive: -0.062	inactive: -0.087	inactive: -0.124	inactive: -0.052	inactive: 0.075	inactive: -0.025	inactive: -0.025	inactive: -0.196	inactive: -0.005	inactive: -0.058	inactive: -0.084		inactive: -0.023	inactive: 0.133	inactive: -0.098		
SERBP1 isoform 3 (UniProt Q8NC51)	inactive: -0.021		inactive: 0.101		inactive: 0.039		inactive: -0.067	inactive: 0.051	inactive: -0.082	inactive: -0.016	inactive: -0.001	inactive: -0.076	inactive: 0.06	inactive: 0.014		inactive: -0.079	inactive: -0.008	inactive: -0.114	inactive: -0.041	inactive: 0.022
SF3B2 (UniProt E9PJ04)	inactive: -0.166		inactive: 0.042									inactive: 0.045		inactive: 0.026	inactive: -0.098			inactive: -0.093	inactive: -0.07	inactive: 0.052
SIRT3 (UniProt Q9NTG7)	inactive: -0.044	inactive: 0.054	inactive: -0.012	inactive: -0.046	inactive: -0.011	inactive: 0.201			inactive: -0.036	inactive: 0.105	inactive: -0.085	inactive: -0.044	inactive: 0.02	inactive: 0.009		inactive: 0.06	inactive: -0.047	inactive: -0.062		
SIX4 (UniProt Q9UIU6)	inactive: -0.011		inactive: -0.025		inactive: -0.016		inactive: -0.171	inactive: 0.083	inactive: -0.063	inactive: 0.104	inactive: -0.029	inactive: 0.029	inactive: 0.113	inactive: -0.067	inactive: 0.098			inactive: -0.179	inactive: 0.052	inactive: 0.096
SH3BP2 isoform 4 (UniProt P78314)	inactive: -0.037	inactive: 0.213	inactive: 0.001	inactive: 0.044	inactive: 0.088	inactive: -0.073			inactive: 0.03	inactive: 0.07	inactive: 0.137	inactive: -0.004	inactive: -0.126	inactive: -0.084		inactive: -0.297	inactive: 0.03	inactive: 0.073	inactive: -0.103	inactive: 0.096
SLC15A4 (UniProt Q8N697)	inactive: 0.024	inactive: 0.152	inactive: -0.08	inactive: 0.114		inactive: -0.167	inactive: -0.058	inactive: 0.05				inactive: 0.088		inactive: 0.024		inactive: -0.072	inactive: -0.021	inactive: -0.027	inactive: -0.006	inactive: 0.044
SETX isoform 4 (UniProt Q7Z333)	inactive: 0.016	inactive: -0.215	inactive: 0.055	inactive: -0.032	inactive: 0.024	inactive: -0.001	inactive: -0.019	inactive: -0.017	inactive: 0.016	inactive: 0.074	inactive: -0.09	inactive: 0.045	inactive: 0.019	inactive: -0.073	inactive: -0.002	inactive: -0.008	inactive: -0.011	inactive: -0.08		
